PubChem BioAssay AID1671195, Yale University, 2021

Assay: 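Knockdowns that increase or decrease uptake of fluorescent LDL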 (primary screen)
Cells: human Huh7 hepatoma cells
Reagent: siRNA pool against human genes, 18 nM
Time to read-out: about 2 to 2.5 days of knockdown, then 8 h LDL uptake
Conditions: DiI-labelled LDL at 30 µg/ml for 8 h, in lipoprotein-deficient serum medium
Detection: 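Per-cell DiI-LDL intensity by automated imaging; well means scaled to the plate median and given as a robust z-score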
Reading the numbers: robust z-score: higher = more LDL uptake after knockdown
Hit rule: 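Active when two or more replicates show a robust z-score above 2 or below -2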
This is an unselected part of about 22,000 deposited reagents. In the full data, about 1,510 (6.9%) were called active. 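Active includes knockdowns raising or lowering LDL uptake; positive z-scores mean more uptake, negative mean less.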 Reagents against one gene are numbered here. Reagent sequences are not shown.

| target gene | reagent no. | robust z-score, replicate 1 | robust z-score, replicate 2 | robust z-score, replicate 3 | outcome |
| --- | --- | --- | --- | --- | --- |
| PHIP | 1 | 0.463 | 0.437 | 1.35 | inactive |
| ATF7 | 1 | 1.36 | 1.31 | 2.42 | inactive |
| DNAH3 | 1 | -1.31 | -0.978 | -2.12 | inactive |
| MRPL47 | 1 | -0.206 | -0.884 | -1.07 | inactive |
| DENND4C | 1 | 0.597 | 0.678 | 0.905 | inactive |
| LOC440266 (retired record) | 1 | -1.12 | 0.834 | 0.418 | inactive |
| KRABD2 | 1 | 1.45 | 0.378 | 0.388 | inactive |
| H2BW1 | 1 | -0.615 | -0.743 | -0.107 | inactive |
| EZR | 1 | -1.06 | -2.16 | -0.78 | inactive |
| TRAF2 | 1 | 0.786 | -0.314 | 0.477 | inactive |
| DLGAP1 | 1 | -0.636 | -0.719 | -0.355 | inactive |
| DLGAP1 | 2 | -1.93 | -0.927 | -1.71 | inactive |
| CATSPER3 | 1 | 1.06 | -0.242 | 0.763 | inactive |
| RNMT | 1 | 0.316 | 0.342 | 0.112 | inactive |
| LOC440734 (retired record) | 1 | -0.371 | 0.0909 | -0.702 | inactive |
| LINC00200 | 1 | 2.06 | 0.711 | 1.16 | inactive |
| OR4D11 | 1 | -0.238 | -0.287 | -0.588 | inactive |
| CSTF2T | 1 | -0.463 | 0.681 | 0.136 | inactive |
| CDK12 | 1 | -1.24 | -1.2 | -1.13 | inactive |
| ZNF709 | 1 | 1.05 | 0.728 | 0.953 | inactive |
| TMCC1 | 1 | -0.226 | 1.79 | 0.041 | inactive |
| KLHL20 | 1 | 3.22 | 1.28 | 1.76 | inactive |
| ZIM3 | 1 | -0.386 | 0.0468 | 0.309 | inactive |
| LINC00315 | 1 | -1.91 | -1.79 | -1.58 | inactive |
| GRP | 1 | -0.278 | 0.424 | -0.0743 | inactive |
| SHISA2 | 1 | 0.0452 | 0.175 | -0.237 | inactive |
| TMEM101 | 1 | -0.837 | -0.671 | -0.421 | inactive |
| MED12 | 1 | -0.326 | -1.91 | -0.817 | inactive |
